PubChem BioAssay AID1224826, NIAID, 2016
Screen: 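Genes that change LPS-induced Tnf promoter activity in mouse macrophages when knocked down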 (primary screen). System: RAW264.7 G9 macrophages from mouse bearing reporters for p65 (GFP) and the Tnf promoter (mCherry). Reagents: siRNA pool against mouse genes, 100 nM. Timing: 16 h of LPS stimulation, after 2 days of siRNA transfection. Challenge: bacterial lipopolysaccharide (Salmonella minnesota R595), 10 ng/ml. Measured: 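Nuclear mCherry signal of the Tnf promoter reporter measured by imaging after background removal, scaled to each plate median and turned into robust z-scores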. Direction: Tnf reporter robust z-score: higher = stronger Tnf promoter reporter signal after LPS. Active means: 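Called active when robust z-score is at most -1.3, matching the median of the Tlr4 knock-down control, or over 3; control wells and wells with under 50 cells never active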. Calls: active = Tnf reporter clearly lowered or raised; inactive = no clear change in Tnf reporter.
The whole screen tested about 17,000 reagents; shown is a random part of them. Of all reagents, about 1,110 (6.6%) got an active call. 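Active means lowered or raised reporter signal; replicate intensities are raw and not normalised per plate.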 Further read-outs or replicates are left out here.

Silencing of Slc25a45 [SID315476599] gave: Tnf reporter robust z-score -0.66; fewer than 50 cells in well enough cells in well; inactive.
With knock-down of Slco1a1 [SID315470691] the results were Tnf reporter robust z-score 0.73; fewer than 50 cells in well enough cells in well; inactive.
Silencing of Evi5 [SID315466581] came out at: Tnf reporter robust z-score 0.16; fewer than 50 cells in well enough cells in well; inactive.
For Coro6 [SID315478057], the values are Tnf reporter robust z-score -0.32; fewer than 50 cells in well enough cells in well; inactive.
Against Sidt2 [SID315477874], the values are Tnf reporter robust z-score -0.49; fewer than 50 cells in well enough cells in well; inactive.
Against Upf1 [SID315468947], the values are Tnf reporter robust z-score 1.48; fewer than 50 cells in well enough cells in well; inactive.
Silencing of Cd2 [SID315465842] gave: Tnf reporter robust z-score 0.5; fewer than 50 cells in well enough cells in well; inactive.
Knock-down of Clcf1 [SID315471646] gave: fewer than 50 cells in well fewer than 50 cells per well; well left out of calls; inactive.
Depletion of Gabra5 [SID315476945] came out at: Tnf reporter robust z-score -0.82; fewer than 50 cells in well enough cells in well; inactive.
After knock-down of Klra2 [SID315467662], the screen gave Tnf reporter robust z-score -1.3; fewer than 50 cells in well enough cells in well; active.
Or52k2 [SID315480700] gave fewer than 50 cells in well fewer than 50 cells per well; well left out of calls; inactive.
Depletion of Ces1g [SID315465939] came out at: Tnf reporter robust z-score 0.37; fewer than 50 cells in well enough cells in well; inactive.
Against Nlgn2 [SID315478043], the values are Tnf reporter robust z-score 0.81; fewer than 50 cells in well enough cells in well; inactive.
Against Klrc2 [SID315467671], the values are Tnf reporter robust z-score 0.08; fewer than 50 cells in well enough cells in well; inactive.
Knock-down of Dusp28 [SID315473030] resulted in: Tnf reporter robust z-score -0.29; fewer than 50 cells in well enough cells in well; inactive.
Socs7 [SID315477379] scored Tnf reporter robust z-score 0.08; fewer than 50 cells in well enough cells in well; inactive.
Against Gbgt1 [SID315478582] the deposit lists Tnf reporter robust z-score 2.07; fewer than 50 cells in well enough cells in well; inactive.
After knock-down of Tmem202 [SID315474798] the results were fewer than 50 cells in well fewer than 50 cells per well; well left out of calls; inactive.
With knock-down of Nfasc [SID315480832], the screen gave Tnf reporter robust z-score -0.6; fewer than 50 cells in well enough cells in well; inactive.
After knock-down of Syt14 [SID315481521] the results were Tnf reporter robust z-score 0.94; fewer than 50 cells in well enough cells in well; inactive.
Rhox5 [SID315468463] scored Tnf reporter robust z-score -0.61; fewer than 50 cells in well enough cells in well; inactive.
With knock-down of Rpl19 [SID315469010] the results were fewer than 50 cells in well fewer than 50 cells per well; well left out of calls; inactive.
Depletion of Sfrp2 [SID315469154] resulted in: Tnf reporter robust z-score 0.25; fewer than 50 cells in well enough cells in well; inactive.
Knock-down of Prss34 [SID315481493] resulted in: Tnf reporter robust z-score 1.37; fewer than 50 cells in well enough cells in well; inactive.
Depletion of Myh3 [SID315468059] resulted in: Tnf reporter robust z-score -0.97; fewer than 50 cells in well enough cells in well; inactive.
Ppm1k [SID315479683] scored Tnf reporter robust z-score -0.61; fewer than 50 cells in well enough cells in well; inactive.
For Ddx59 [SID315473355], the entry reads fewer than 50 cells in well fewer than 50 cells per well; well left out of calls; inactive.

2 of these entries in another layout.
Rpl19 [SID315469010]
- fewer than 50 cells in well: fewer than 50 cells per well; well left out of calls
- outcome: inactive

Sfrp2 [SID315469154]
- Tnf reporter robust z-score: 0.25
- fewer than 50 cells in well: enough cells in well
- outcome: inactive
